Consider 29 molecules from the supplement of paper PMC10735217.

This assay has as its system HEK293A TEAD-LUC reporter. The assay can be described thus: TEAD-luciferase reporter activity (YAP activation), robust Z score vs plate; higher = stronger YAP/TEAD activation. The conditions noted are these: 24 h. On the technique in general: Reporter assays use an easily measured gene product as a stand-in for the process of interest.

Where a name gives a salt, the structure may show the parent alone. The list shows a part of the results. Single values are uncertain here, since repeats match poorly.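 In a drug-repurposing library screen, luminescence reads luciferase driven by eight TEAD-binding elements, stably integrated into human kidney-derived cells. Compounds scoring over five robust Z scores above the plate mean are called hits.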

As for `Oc1ccc2c3c1O[C@H]1[C@H](O)CC[C@@]4(O)[C@@H](C2)N(CC2CC2)CC[C@]314` [6beta-naltrexol], the TEAD-luciferase reporter activity (compound concentration: 200 nM) was inactive: -1.15, the TEAD-luciferase reporter activity (compound concentration: 2 uM) is inactive: 1.66 and the TEAD-luciferase reporter activity (compound concentration: 10 uM) was inactive: 1.31.

`CS(=O)(=O)OCCN(CCCl)c1ccc(C(=O)N[C@@H](CCC(=O)O)C(=O)O)cc1`: the TEAD-luciferase reporter activity (compound concentration: 200 nM) was inactive: -2.11, the TEAD-luciferase reporter activity (compound concentration: 2 uM) is inactive: 0.00255 and the TEAD-luciferase reporter activity (compound concentration: 10 uM) was inactive: 0.346.

`NC[C@H](O)C[PH](=O)O`: the TEAD-luciferase reporter activity is inactive: -1.17 (compound concentration: 200 nM) and inactive: -0.114 (compound concentration: 10 uM).

With `C[C@]12CC[C@H]3[C@@H](CCC4=CC(=O)CC[C@@H]43)[C@@H]1CC[C@@H]2OC(=O)N(CCCl)N=O`, the TEAD-luciferase reporter activity was inactive: 0.134 (compound concentration: 200 nM), inactive: -0.93 (compound concentration: 2 uM) and inactive: -0.811 (compound concentration: 10 uM).

With `Oc1cccc[c]1[Hg][Cl]`, the TEAD-luciferase reporter activity runs as follows: (compound concentration: 200 nM) inactive: -1.32; (compound concentration: 2 uM) inactive: 0.283; (compound concentration: 10 uM) inactive: 0.714.

For `C[C@H](Cc1ccc(OCC(=O)O)cc1)NC[C@H](O)c1cccc(Cl)c1`, the TEAD-luciferase reporter activity reads like this: (compound concentration: 200 nM) inactive: -0.0565; (compound concentration: 2 uM) inactive: -0.873; (compound concentration: 10 uM) inactive: -1.66.

On to `C/C(=C\[C@H](C(C)C)N(C)C(=O)[C@@H](NC(=O)[C@H]1CCCCN1C(C)C)C(C)(C)C)C(=O)O`, for which the TEAD-luciferase reporter activity by setting is: (compound concentration: 200 nM) inactive: -0.275; (compound concentration: 2 uM) active: 6.76; (compound concentration: 10 uM) active: 6.81.

With `CN1CCC2=C(C1)c1ccccc1Cc1ccccc12` [setiptiline], the TEAD-luciferase reporter activity (compound concentration: 200 nM) was inactive: 1.13, the TEAD-luciferase reporter activity (compound concentration: 2 uM) is inactive: -1.11 and the TEAD-luciferase reporter activity (compound concentration: 10 uM) is inactive: 1.71.

Take `COc1cc2c(cc1OC)C(c1cccc(Cl)c1)=NN=C(C)C2`: the TEAD-luciferase reporter activity runs as follows: (compound concentration: 200 nM) inactive: -0.447; (compound concentration: 2 uM) inactive: -1.29; (compound concentration: 10 uM) inactive: -0.787.

For the molecule `CCCCOCC(CN1C(=O)N(CC(COCCCC)OC(N)=O)C(=O)C(CC)(c2ccccc2)C1=O)OC(N)=O` (centres undefined) [Difebarbamate], the TEAD-luciferase reporter activity is inactive: -0.0179 (compound concentration: 200 nM), inactive: -1.17 (compound concentration: 2 uM) and inactive: 2.42 (compound concentration: 10 uM).

`Nc1cc(OCC2CC2)c(C(=O)NC2CN3CCC2CC3)cc1Cl` (centres undefined) [Pancopride]: the TEAD-luciferase reporter activity (compound concentration: 200 nM) was inactive: -2.65, the TEAD-luciferase reporter activity (compound concentration: 2 uM) is inactive: 0.596 and the TEAD-luciferase reporter activity (compound concentration: 10 uM) was inactive: -0.131.

For the molecule `CC(=O)OC1CCC2(C)C(=CCC3C2CCC2(C)C(OC(C)=O)CCC32)C1` (centres undefined), the TEAD-luciferase reporter activity is, setting by setting: (compound concentration: 200 nM) inactive: -0.853; (compound concentration: 2 uM) inactive: 0.816; (compound concentration: 10 uM) active: 7.71.

In the case of `CCCC(C)(COC(N)=O)COC(=O)NC(C)C` (centres undefined) [Carisoprodol (Sanoma)], the TEAD-luciferase reporter activity (compound concentration: 2 uM) was inactive: -1.33.

For `CCCC(C)(COC(N)=O)COC(=O)NC(C)C` (centres undefined), the TEAD-luciferase reporter activity (compound concentration: 200 nM) was inactive: 0.744 and the TEAD-luciferase reporter activity (compound concentration: 10 uM) was inactive: -0.0677.

Consider `C=C(C)CC1(CC)C(=O)NC(=S)NC1=O`, for which the TEAD-luciferase reporter activity reads like this: (compound concentration: 200 nM) inactive: 2.25; (compound concentration: 2 uM) inactive: -0.99; (compound concentration: 10 uM) inactive: -2.21.

`CNC(=O)Oc1ccc2c(c1)C1(C)CCN(C)C1N2C` (centres undefined) [physostigmine, Calabar]: the TEAD-luciferase reporter activity is inactive: 1.95 (compound concentration: 200 nM), inactive: -1.78 (compound concentration: 2 uM) and inactive: -0.607 (compound concentration: 10 uM).

Turning to `O=C(O)c1cc2ccccc2n1Cc1ccc(Cl)cc1`, the TEAD-luciferase reporter activity is, setting by setting: (compound concentration: 200 nM) inactive: 0.836; (compound concentration: 2 uM) inactive: 3.73; (compound concentration: 10 uM) inactive: 1.49.

With `COc1ccc2c3c1O[C@H]1C=CC=C4C(C2)NCCC431` (some centres undefined) [Norcodeine, derivative of], the TEAD-luciferase reporter activity reads like this: (compound concentration: 200 nM) inactive: -0.839; (compound concentration: 2 uM) inactive: -1.13; (compound concentration: 10 uM) inactive: 1.01.

In the case of `CN(C(=O)/C=C/c1ccoc1)[C@@H]1CC[C@@]2(O)[C@H]3Cc4ccc(O)c5c4[C@@]2(CCN3CC2CC2)[C@H]1O5` [Nalfurafine Hydrochloride], the TEAD-luciferase reporter activity is, setting by setting: (compound concentration: 200 nM) inactive: -1.3; (compound concentration: 2 uM) inactive: -0.559; (compound concentration: 10 uM) inactive: -2.66.

As to `O=C(CCNc1c2ccccc2nc2ccccc12)OCCN(CCCl)CCCl` [Amustaline], the TEAD-luciferase reporter activity reads like this: (compound concentration: 200 nM) inactive: -1.55; (compound concentration: 2 uM) inactive: -1.04; (compound concentration: 10 uM) inactive: -0.474.

For the molecule `COc1ccc(CCNCC(O)c2ccccc2)cc1OC` (centres undefined), the TEAD-luciferase reporter activity (compound concentration: 200 nM) is active: 5.18, the TEAD-luciferase reporter activity (compound concentration: 2 uM) is inactive: -1.13 and the TEAD-luciferase reporter activity (compound concentration: 10 uM) is inactive: -2.01.

As for `Nc1ncnc2c1ncn2CCOCP(=O)(O)O` [Adefovir], the TEAD-luciferase reporter activity is inactive: -1.03 (compound concentration: 200 nM) and inactive: -0.55 (compound concentration: 10 uM).

Turning to `O=C(O)CCCCCCNC1c2ccccc2CCc2ccccc21` [amineptine], the TEAD-luciferase reporter activity is, setting by setting: (compound concentration: 200 nM) inactive: 4.08; (compound concentration: 2 uM) inactive: 1.24; (compound concentration: 10 uM) inactive: -2.17.

With `CCC(=O)O[C@H]1CC[C@H]2[C@@H]3CC[C@H]4CC(=O)[C@H](C)C[C@]4(C)[C@H]3CC[C@]12C` [Drostanolone Propionate], the TEAD-luciferase reporter activity by setting is: (compound concentration: 200 nM) inactive: -0.887; (compound concentration: 2 uM) inactive: -0.522; (compound concentration: 10 uM) inactive: -1.36.

On to `Clc1ccc(OCC2CCN2)cn1` (centres undefined), for which the TEAD-luciferase reporter activity reads like this: (compound concentration: 200 nM) inactive: 0.651; (compound concentration: 2 uM) inactive: -0.992; (compound concentration: 10 uM) inactive: 0.0873.

Turning to `CC1Sc2c(C(=O)O)c(=O)c3cc(F)c(N4CCNCC4)cc3n21` (centres undefined) [Ulifloxacin], the TEAD-luciferase reporter activity reads like this: (compound concentration: 200 nM) inactive: -1.23; (compound concentration: 2 uM) inactive: -1.51; (compound concentration: 10 uM) inactive: -0.65.

For the molecule `CCC[C@@H](C)C[C@H](CN)CC(=O)O`, the TEAD-luciferase reporter activity (compound concentration: 200 nM) is inactive: -0.592, the TEAD-luciferase reporter activity (compound concentration: 2 uM) is inactive: -0.616 and the TEAD-luciferase reporter activity (compound concentration: 10 uM) was inactive: 1.03.

For the molecule `CCCCCn1cc(-c2nc(CN(CCOC)C(C)C)cs2)c2ccccc21`, the TEAD-luciferase reporter activity (compound concentration: 2 uM) is inactive: -1.01.

Take `CCCCCn1cc(-c2nc(CN(CCOC)C(C)C)cs2)c2ccccc21` [PTI-2 (hydrochloride)]: the TEAD-luciferase reporter activity is inactive: -1.16 (compound concentration: 200 nM) and active: 7.11 (compound concentration: 10 uM).
